Reference: patent US9326993B2, “Treatment of pulmonary and pleural fibrosis using HSP27 inhibitors” (ONCOGENEX TECHNOLOGIES INC., priority 2011, dated 2016)

Test system: mice lung tissue
Experiment: Bleomycin intra-tracheal pulmonary fibrosis model
Assay type: in vivo
Conditions: intra-tracheal administration

In the case of bleomycin, the “mesenchymal marker α-SMA in lung tissue (immunoblotting)” value is reported as “induction” and the “HSP27 expression in lung tissue (immunoblotting)” value (21 days) is reported as “significant HSP27 overexpression”.
